Results taken from publication PMC5343482.
These are yes or no findings as the source states them, for the method shown. In cells and extracts the contact can be indirect. Some results given as binding are weak or reduced against the parent protein; the word gives no strength.

Amino acid sequences for entries named in this document (tags omitted).
UniProt Q92922: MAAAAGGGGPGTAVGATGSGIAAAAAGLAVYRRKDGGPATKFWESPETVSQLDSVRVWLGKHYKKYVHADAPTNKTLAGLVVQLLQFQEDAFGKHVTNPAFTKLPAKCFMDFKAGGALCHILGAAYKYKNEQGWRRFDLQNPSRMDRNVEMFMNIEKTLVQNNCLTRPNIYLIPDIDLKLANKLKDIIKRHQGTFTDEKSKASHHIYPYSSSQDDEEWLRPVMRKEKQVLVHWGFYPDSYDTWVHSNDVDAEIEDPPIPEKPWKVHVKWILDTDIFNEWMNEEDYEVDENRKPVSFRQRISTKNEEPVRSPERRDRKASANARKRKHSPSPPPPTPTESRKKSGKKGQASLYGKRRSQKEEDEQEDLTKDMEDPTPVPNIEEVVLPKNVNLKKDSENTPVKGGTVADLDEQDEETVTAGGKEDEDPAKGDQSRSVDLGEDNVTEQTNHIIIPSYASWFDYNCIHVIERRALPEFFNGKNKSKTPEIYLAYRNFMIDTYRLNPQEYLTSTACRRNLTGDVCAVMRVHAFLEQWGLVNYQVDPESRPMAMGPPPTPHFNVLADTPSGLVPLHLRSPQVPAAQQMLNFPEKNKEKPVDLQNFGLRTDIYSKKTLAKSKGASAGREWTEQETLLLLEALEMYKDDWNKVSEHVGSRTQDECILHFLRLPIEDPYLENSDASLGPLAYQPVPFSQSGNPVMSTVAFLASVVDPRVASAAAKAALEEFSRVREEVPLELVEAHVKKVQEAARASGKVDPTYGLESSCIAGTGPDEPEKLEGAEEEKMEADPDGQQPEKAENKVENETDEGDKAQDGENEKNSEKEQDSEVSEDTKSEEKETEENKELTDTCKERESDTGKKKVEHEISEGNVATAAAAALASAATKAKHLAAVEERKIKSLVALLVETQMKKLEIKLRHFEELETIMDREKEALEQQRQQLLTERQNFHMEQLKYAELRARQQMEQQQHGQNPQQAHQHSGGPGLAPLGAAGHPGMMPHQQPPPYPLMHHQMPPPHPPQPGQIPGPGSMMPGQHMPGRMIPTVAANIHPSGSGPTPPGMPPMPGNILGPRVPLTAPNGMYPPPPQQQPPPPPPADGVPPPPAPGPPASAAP
UniProt Q09472: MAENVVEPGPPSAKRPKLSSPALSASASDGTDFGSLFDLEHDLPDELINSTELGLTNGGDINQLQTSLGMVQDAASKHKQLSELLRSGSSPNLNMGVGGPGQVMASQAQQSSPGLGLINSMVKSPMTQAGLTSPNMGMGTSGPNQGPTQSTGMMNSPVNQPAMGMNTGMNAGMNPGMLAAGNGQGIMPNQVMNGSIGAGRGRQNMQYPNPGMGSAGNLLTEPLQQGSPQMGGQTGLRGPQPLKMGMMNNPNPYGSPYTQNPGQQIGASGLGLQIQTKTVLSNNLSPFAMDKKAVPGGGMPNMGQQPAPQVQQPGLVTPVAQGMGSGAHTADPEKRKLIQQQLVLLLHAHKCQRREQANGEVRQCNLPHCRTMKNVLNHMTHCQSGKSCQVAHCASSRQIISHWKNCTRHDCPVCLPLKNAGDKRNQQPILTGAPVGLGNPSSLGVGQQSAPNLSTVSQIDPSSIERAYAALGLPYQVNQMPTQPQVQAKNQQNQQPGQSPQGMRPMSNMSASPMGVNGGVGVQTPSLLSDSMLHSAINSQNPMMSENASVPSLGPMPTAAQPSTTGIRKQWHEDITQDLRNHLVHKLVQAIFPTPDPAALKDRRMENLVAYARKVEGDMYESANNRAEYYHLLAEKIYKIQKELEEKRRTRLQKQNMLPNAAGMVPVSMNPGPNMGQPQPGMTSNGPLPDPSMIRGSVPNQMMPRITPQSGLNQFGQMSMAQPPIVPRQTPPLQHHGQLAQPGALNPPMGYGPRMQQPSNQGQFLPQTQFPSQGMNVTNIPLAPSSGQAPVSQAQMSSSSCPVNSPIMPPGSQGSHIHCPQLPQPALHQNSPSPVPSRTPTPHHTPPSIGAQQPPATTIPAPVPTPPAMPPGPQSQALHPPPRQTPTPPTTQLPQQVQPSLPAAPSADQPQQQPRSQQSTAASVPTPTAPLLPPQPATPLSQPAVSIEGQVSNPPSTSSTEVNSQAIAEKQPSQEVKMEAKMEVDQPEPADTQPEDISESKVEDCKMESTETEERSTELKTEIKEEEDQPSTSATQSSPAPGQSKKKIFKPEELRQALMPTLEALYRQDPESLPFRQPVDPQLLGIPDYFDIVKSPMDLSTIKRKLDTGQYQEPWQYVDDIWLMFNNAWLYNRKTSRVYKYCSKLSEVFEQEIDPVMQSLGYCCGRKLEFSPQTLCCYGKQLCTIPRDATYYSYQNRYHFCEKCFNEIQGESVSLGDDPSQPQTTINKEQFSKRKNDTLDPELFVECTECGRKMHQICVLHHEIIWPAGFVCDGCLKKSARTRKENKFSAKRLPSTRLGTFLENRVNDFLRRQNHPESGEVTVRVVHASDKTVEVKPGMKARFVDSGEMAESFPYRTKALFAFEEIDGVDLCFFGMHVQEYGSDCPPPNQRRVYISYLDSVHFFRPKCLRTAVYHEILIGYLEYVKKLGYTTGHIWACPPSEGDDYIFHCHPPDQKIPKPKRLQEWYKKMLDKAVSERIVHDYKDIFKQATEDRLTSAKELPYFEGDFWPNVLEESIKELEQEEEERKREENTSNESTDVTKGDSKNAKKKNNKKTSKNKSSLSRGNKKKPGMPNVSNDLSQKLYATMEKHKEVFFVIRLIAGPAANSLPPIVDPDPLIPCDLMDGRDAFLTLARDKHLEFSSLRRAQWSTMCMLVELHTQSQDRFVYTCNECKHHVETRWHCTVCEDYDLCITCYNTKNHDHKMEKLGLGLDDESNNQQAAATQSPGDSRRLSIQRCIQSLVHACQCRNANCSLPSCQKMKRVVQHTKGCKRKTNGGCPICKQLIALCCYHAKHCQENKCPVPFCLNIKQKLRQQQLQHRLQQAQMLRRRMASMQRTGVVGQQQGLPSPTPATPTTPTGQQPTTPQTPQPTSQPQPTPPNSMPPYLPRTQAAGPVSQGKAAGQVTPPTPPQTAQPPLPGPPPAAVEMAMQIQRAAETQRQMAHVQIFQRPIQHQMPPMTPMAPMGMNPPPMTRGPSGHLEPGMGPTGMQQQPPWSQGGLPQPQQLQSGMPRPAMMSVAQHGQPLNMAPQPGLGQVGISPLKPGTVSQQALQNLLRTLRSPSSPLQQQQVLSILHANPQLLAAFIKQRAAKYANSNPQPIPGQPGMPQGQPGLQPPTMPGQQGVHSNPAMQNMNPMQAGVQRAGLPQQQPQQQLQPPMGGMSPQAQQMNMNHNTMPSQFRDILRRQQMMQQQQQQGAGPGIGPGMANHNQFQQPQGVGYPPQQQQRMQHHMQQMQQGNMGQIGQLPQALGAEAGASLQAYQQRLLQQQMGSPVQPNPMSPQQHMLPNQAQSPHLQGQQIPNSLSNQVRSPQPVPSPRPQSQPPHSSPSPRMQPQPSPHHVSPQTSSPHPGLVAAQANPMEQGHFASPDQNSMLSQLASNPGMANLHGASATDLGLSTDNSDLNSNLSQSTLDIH

Target: SMARCC1 (human), core SWI/SNF subunit (human (endogenous in G401)) (UniProt Q92922)
Assay: co-IP; anti-SMARCC1 on Dynabeads, G401 rhabdoid cells with or without doxycycline-induced SMARCB1 re-expression (legend: nuclear extracts), 4 °C overnight, immunoblot for P300; IgG as control

- binding: binds
Substance: p300 histone acetyltransferase (human) (from UniProt Q09472 1-2414)
